These are yes or no findings as the source states them, for the method shown. Binding seen in cells or lysates may run through a third protein. Here binding means that the protein was enriched with, or labelled near, the bait; the list need not be complete.
Molecular target: T1, TRIM28 (human) (UniProt Q13263)
T1 sequence: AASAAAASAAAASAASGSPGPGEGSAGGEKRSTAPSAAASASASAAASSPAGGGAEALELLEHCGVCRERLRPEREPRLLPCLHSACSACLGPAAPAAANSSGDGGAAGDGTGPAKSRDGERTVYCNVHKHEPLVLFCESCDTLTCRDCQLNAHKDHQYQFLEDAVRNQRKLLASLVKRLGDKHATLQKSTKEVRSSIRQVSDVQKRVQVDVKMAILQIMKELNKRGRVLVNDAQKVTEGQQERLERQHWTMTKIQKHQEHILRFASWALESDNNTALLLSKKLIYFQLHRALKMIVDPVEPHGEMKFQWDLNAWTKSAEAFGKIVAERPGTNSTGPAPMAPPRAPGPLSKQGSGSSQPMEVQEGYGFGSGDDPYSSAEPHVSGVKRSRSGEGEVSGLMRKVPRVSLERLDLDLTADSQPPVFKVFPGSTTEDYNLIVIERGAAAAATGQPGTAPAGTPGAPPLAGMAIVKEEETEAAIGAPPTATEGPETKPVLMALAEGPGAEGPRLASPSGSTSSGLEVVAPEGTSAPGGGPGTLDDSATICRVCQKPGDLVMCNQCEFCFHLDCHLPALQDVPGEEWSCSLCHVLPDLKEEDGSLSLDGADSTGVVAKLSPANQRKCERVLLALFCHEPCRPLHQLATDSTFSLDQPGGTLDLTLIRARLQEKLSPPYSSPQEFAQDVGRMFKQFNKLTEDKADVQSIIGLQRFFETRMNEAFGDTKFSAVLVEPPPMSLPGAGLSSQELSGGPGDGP
Assay: One-Strep affinity purification after DTBP cross-linking, SDS-PAGE, mass spectrometry

binding: binds
B1: One-Strep-IRF5 fusion protein (other)
chain: MNQSIPVAPTPPRRVRLKPWLVAQVNSCQYPGLQWVNGEKKLFCIPWRHATRHGPSQDGDNTIFKAWAKETGKYTEGVDEADPAKWKANLRCALNKSRDFRLIYDGPRDMPPQPYKIYEVCSNGPAPTDSQPPEDYSFGAGEEEEEEEELQRMLPSLSLTEDVKWPPTLQPPTLQPPVVLGPPAPDPSPLAPPPGNPAGFRELLSEVLEPGPLPASLPPAGEQLLPDLLISPHMLPLTDLEIKFQYRGRPPRALTISNPHGCRLFYSQLEATQEQVELFGPISLEQVRFPSPEDIPSDKQRFYTNQLLDVLDRGLILQLQGQDLYAIRLCQCKVFWSGPCASAHDSCPNPIQREVKTKLFSLEHFLNELILFQKGQTNTPPPFEIFFCFGEEWPDRKPREKKLITVQVVPVAARLLLEMFSGELSWSADSIRLQISNPDLKDRMVEQFKELHHIWQSQQRLQPVAQAPPGAGLGVGQGPWPMHPAGMQ
notes: also called full-length IRF5 (One-Strep bait); not shown: One-Strep tag

From patent US20140030218A1, “Treatment And Screening” (IMPERIAL INNOVATIONS LIMITED, published 2014)
